These are yes or no findings as the source states them, for the method shown. Binding seen in cells or lysates may run through a third protein. Some binding calls cover weakened binding; strength is not graded here.

Protein sequences, listed by entry. Tags and fused reporters are not part of them. Residues count along the entry.
UniProt P32248, residues 25-378: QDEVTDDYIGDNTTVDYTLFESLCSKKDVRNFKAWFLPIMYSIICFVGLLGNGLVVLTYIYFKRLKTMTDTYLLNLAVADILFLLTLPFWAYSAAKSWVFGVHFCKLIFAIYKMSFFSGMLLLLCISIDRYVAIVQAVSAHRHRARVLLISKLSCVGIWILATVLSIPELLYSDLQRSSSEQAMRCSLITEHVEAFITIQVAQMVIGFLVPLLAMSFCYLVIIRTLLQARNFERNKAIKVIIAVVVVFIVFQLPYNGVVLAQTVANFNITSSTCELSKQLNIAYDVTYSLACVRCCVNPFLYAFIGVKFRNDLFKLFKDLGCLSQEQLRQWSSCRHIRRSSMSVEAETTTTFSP

For this assay, the target named is C-C chemokine receptor 7 (human (endogenous in Raji)) (UniProt P32248). The assay is described as follows: co-IP; Raji cell lysate (RIPA:PMSF 100:1); antibody to CCR7, KMT2D or LGALS9, or IgG, on protein A+G magnetic beads, 4 °C for 6 h; beads washed 3 times with RIPA; Western blot. For orientation: Immunoblotting shows a protein as a band on a membrane.

In the case of “LGALS9 (Galectin-9) (from UniProt O00182 1-355)”, the binding result was “binds”.

Source of the values: paper PMC13579993.
